Drawing on PubChem BioAssay AID1487 (National Center for Advancing Translational Sciences (NCATS), 2009), this text covers AC50 for 35 compounds.

Some of the results follow. These are further read-outs of the screen, such as a control signal, another cell line or another target. No call is given for them. The list favours compounds with an active or inconclusive main result. Potencies come from curve fits of mixed quality, noted in brackets.

The experiment can be described thus: qHTS Assay for Modulators of Lamin A Splicing. The note with it: HeLa LMNA splicing GFP/RFP minigene ratio, 48 h. The essentials:
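S3 HeLa cells stably expressing lamin A-EGFP splicing minigene plus DsRed2, 600 cells/well, 48 h compound exposure at 37C. Laser-scanning cytometry; analysed as GFP (500-530 nm)/RFP (575-640 nm) total intensity ratio; 0.5% DMSO vehicle.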

Setting [1] is: measured here: GFP splicing reporter channel.
Where [2] appears, read: measured here: RFP viability control channel.

As usually defined, the AC50 is the concentration giving half of the maximal activity seen. As for `CCC(=O)n1nc(-c2cccnc2)nc1NCc1ccc(F)cc1`, the AC50 was 8.91 µM [falling, partial curve] under setting [1] and 3.98 µM [falling, partial curve, poor fit] under setting [2].

Take `CCc1ccc(NC(=O)Cn2ccn(Cc3ccccc3OC)c(=O)c2=O)cc1`: the concentration at half-maximal activity (AC50) is 6.31 µM [rising, partial curve] under setting [1] and 3.98 µM [rising, full curve, poor fit] under setting [2].

Turning to `CCN(CC)CCCN(Cc1cc2cc3c(cc2[nH]c1=O)OCCO3)C(=O)Nc1ccc(F)cc1`, under setting [2], the AC50 was 11.2 µM [rising, single point].

With `CC(C)(C)OC(=O)N1CCN(c2ccc([N+](=O)[O-])cc2)CC1`, the AC50 under setting [2] was 10 µM [rising, single point].

`CCc1ccc(NC(=O)N(Cc2ccco2)C(C)c2cccs2)cc1` (centres undefined): under setting [1], the AC50 is 0.00562 µM [falling, full curve, poor fit].

As to `CCn1nc(C(=O)Nc2cccc(C(F)(F)F)c2)c(Cl)c1Cl`, the AC50 under setting [1] was 0.0501 µM [rising, full curve].

As for `CCCCCOc1ccc(C2NC(=O)NC2=O)cc1` (centres undefined), the AC50 under setting [2] was 5.62 µM [rising, full curve].

Regarding `O=C(Cc1ccc(Cl)cc1)Nc1nnc2n1CCS2`, the AC50 under setting [2] was 5.62 µM [rising, partial curve, poor fit].

For the compound `Cc1ccc(-n2nc(C)c3c(C)cc(=O)n(CC(=O)N4CCCc5ccccc54)c32)cc1`, the AC50 is, setting by setting: under setting [1], 0.0562 µM [falling, full curve]; under setting [2], 0.00708 µM [falling, full curve, poor fit].

Consider `Cc1cccc(NC(=O)c2ccc(C(=O)Nc3cccc(C)c3)nc2)c1`, for which the AC50 under setting [2] was 14.1 µM [rising, single point].

`CN(Cc1ccccc1)Cc1c[nH]c2ccccc12`: the AC50 under setting [2] is 14.1 µM [rising, single point].

As to `CC1(c2ccc3ccccc3c2)NC(=O)N(CC(=O)Nc2cccc(S(=O)(=O)N3CCOCC3)c2)C1=O` (centres undefined), the AC50 is, setting by setting: under setting [1], 20 µM [rising, single point]; under setting [2], 31.6 µM [rising, single point].

As for `CCOC(=O)c1c(C)nc2c(c1C)/C(=N/O)CC(C)(C)C2`, the AC50 under setting [2] is 20 µM [rising, single point].

As to `Cc1cc(C)c(NS(=O)(=O)c2ccc(-c3cnc(C4CC4)o3)cc2)c(C)c1`, the AC50 by setting is: under setting [1], 17.8 µM [falling, single point]; under setting [2], 0.0891 µM [rising, full curve].

Take `O=C(Cc1ccccc1[N+](=O)[O-])Nc1ccccc1C(=O)N1CCCC1`: the AC50 under setting [1] was 5.62 µM [rising, single point].

In the case of `C#C[C@@]1(O)CC[C@@H]2[C@@H]3CCC4=CC(=O)CC[C@@H]4[C@H]3CC[C@]21CC`, the AC50 is, setting by setting: under setting [1], 8.91 µM [falling, partial curve]; under setting [2], 7.94 µM [falling, partial curve].

Turning to `COc1ccc(C(=O)c2ccc(CC#N)s2)cc1`, the AC50 under setting [2] was 12.6 µM [rising, partial curve].

In the case of `O=C(COc1ccc2ccccc2c1)N1CCN(c2ccccc2O)CC1`, the AC50 under setting [2] is 20 µM [rising, single point].

`OC(COc1ccc2c(c1)OCO2)CN1CCN(c2ccccc2)CC1` (centres undefined): the AC50 under setting [1] is 0.316 µM [falling, full curve, poor fit].

With `COc1ccccc1OCC(=O)NNC(=S)NC(=O)c1ccco1`, under setting [2], the AC50 was 35.5 µM [rising, single point].

For the compound `COc1cc(NC(=S)NC(=O)c2ccccc2C)ccc1NC(=O)c1cccs1`, the AC50 under setting [2] is 2 µM [rising, full curve, poor fit].

Consider `COc1ccc(CCNC(=O)c2cc(S(=O)(=O)N(C)c3ccccc3)ccc2Cl)cc1`, for which the AC50 runs as follows: under setting [1], 11.2 µM [rising, partial curve]; under setting [2], 22.4 µM [rising, single point].

In the case of `O=c1c(-c2nnc(SCc3ccc(Cl)cc3Cl)o2)cccn1Cc1ccccc1`, the AC50 was 25.1 µM [falling, partial curve, poor fit] under setting [1] and 14.1 µM [falling, partial curve] under setting [2].

On to `CCCSc1nnc(Sc2nnnn2-c2ccccc2)s1`, for which the AC50 was 31.6 µM [falling, single point] under setting [1] and 35.5 µM [falling, single point] under setting [2].

Consider `CCC(=Nc1ccc(Cc2ccncc2)cc1)c1c(O)n(C)c(=O)n(C)c1=O`, for which the AC50 under setting [1] is 0.0112 µM [falling, full curve, poor fit].

As to `O=C(NCCCN1CCCC1=O)c1ccc2c(=O)n(-c3ccc(F)cc3)c(=S)[nH]c2c1`, the AC50 under setting [1] is 1.26 µM [rising, full curve] and the AC50 under setting [2] was 1.41 µM [rising, full curve, poor fit].

Turning to `Cn1nc(CC(=O)N2CCN(c3ccccc3)CC2)c2ccccc2c1=O`, the AC50 under setting [2] is 11.2 µM [rising, single point].

With `Cc1ccc(NC(=O)C(=O)NCC(c2cccnc2)N2CCOCC2)cc1Cl` (centres undefined), the AC50 was 15.8 µM [falling, partial curve] under setting [1] and 14.1 µM [falling, partial curve] under setting [2].

As for `Fc1cccc(C2CCCCN2Cc2nc(C3CC3)no2)c1` (centres undefined), under setting [2], the AC50 is 35.5 µM [falling, single point].

Consider `O=C(CSc1ncnc2c1cnn2-c1ccccc1Cl)N1CCN(C(=O)c2ccco2)CC1`, for which the AC50 under setting [2] is 25.1 µM [rising, single point].

Regarding `COc1ccc(C(=O)Nc2nc3c(s2)CCCC3)cc1S(=O)(=O)N1CCCc2ccccc21`, the AC50 under setting [1] was 3.98 µM [rising, full curve] and the AC50 under setting [2] is 5.62 µM [rising, full curve].

For `CSC1=C(C#N)C2(CCCC2)C(C#N)=C(N)N1`, the AC50 under setting [1] is 14.1 µM [rising, single point].

On to `CCCCOc1ccc(C(C)NC(=O)c2cccc(Nc3nc4ccccc4n4nnnc34)c2)cc1` (centres undefined), for which, under setting [2], the AC50 was 0.794 µM [falling, full curve].

For `CCc1cccc(C)c1NC(=O)CCCSc1nc2ccccc2s1`, the AC50 runs as follows: under setting [1], 11.2 µM [rising, partial curve]; under setting [2], 17.8 µM [rising, single point].

As to `COc1ccccc1CNc1nc(-c2ccc(C(=O)N(C)C)cc2)nc2ccccc12`, the AC50 by setting is: under setting [1], 22.4 µM [falling, partial curve]; under setting [2], 22.4 µM [falling, single point].
